Measured data: PubChem BioAssay AID743121 (NCATS, 2013)
Aim: 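Partners whose loss is lethal together with topoisomerase I blockade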 (primary screen). Cells: MDA-MB-231 cells, a human breast cancer line. Knock-down reagent: single siRNA against human genes, 20 nM siRNA (0.8 pmol per well). Duration: 120 h (drug added 48 h after transfection, read 72 h later). Challenge: camptothecin 20 nM (about EC30) for 72 h; vehicle 0.1% DMSO in parallel plates. Detection: 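Cell viability by ATP luminescence (CellTiter-Glo) as % of non-targeting siRNA wells, and the log2 ratio of viability without drug over viability with camptothecin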. Reading the numbers: log2 vehicle/camptothecin viability: higher = stronger sensitisation to camptothecin; viability with camptothecin: higher = more viable cells. Rule for the call: 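Each gene scored by redundant siRNA activity (RSA) over its individual siRNA ratios; a gene is called active at p < 0.001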.
In all, the deposit lists about 26,000 reagents; this is a random part of them. Of all reagents, 167 (0.63%) were called active. 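Calls are per gene from RSA p-values that are not deposited; an individual active-marked siRNA can sensitise only weakly.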 Entries without a mark were called inactive. Reagents against one gene are numbered here. Further read-outs or replicates are left out here.

FGFR4 #1 | log2 vehicle/camptothecin viability: -0.757; viability with camptothecin (% of control): 62.7
FGFR4 #2 | log2 vehicle/camptothecin viability: -0.091; viability with camptothecin (% of control): 35.1
FGFR4 #3 | log2 vehicle/camptothecin viability: -0.367; viability with camptothecin (% of control): 23.1
FGFR4 #4 | log2 vehicle/camptothecin viability: -0.459; viability with camptothecin (% of control): 100
TAAR1 #1 | log2 vehicle/camptothecin viability: -0.115; viability with camptothecin (% of control): 78.2
TAAR1 #2 | log2 vehicle/camptothecin viability: -0.527; viability with camptothecin (% of control): 108
TAAR1 #3 | log2 vehicle/camptothecin viability: -0.156; viability with camptothecin (% of control): 112
TAAR1 #4 | log2 vehicle/camptothecin viability: 0.0651; viability with camptothecin (% of control): 116
SLC6A4 #1 | log2 vehicle/camptothecin viability: -0.00462; viability with camptothecin (% of control): 94.9
SLC6A4 #2 | log2 vehicle/camptothecin viability: 0.213; viability with camptothecin (% of control): 77.8
SLC6A4 #3 | log2 vehicle/camptothecin viability: -0.025; viability with camptothecin (% of control): 92.9
CD151 #1 | log2 vehicle/camptothecin viability: -0.257; viability with camptothecin (% of control): 99
CD151 #2 | log2 vehicle/camptothecin viability: -0.0783; viability with camptothecin (% of control): 40
CD151 #3 | log2 vehicle/camptothecin viability: -0.477; viability with camptothecin (% of control): 73.2
CD151 #4 | log2 vehicle/camptothecin viability: -0.0365; viability with camptothecin (% of control): 61
EHMT2 #1 | log2 vehicle/camptothecin viability: 0.111; viability with camptothecin (% of control): 34.1
EHMT2 #2 | log2 vehicle/camptothecin viability: -0.429; viability with camptothecin (% of control): 96.3
EHMT2 #3 | log2 vehicle/camptothecin viability: -0.252; viability with camptothecin (% of control): 44.4
EHMT2 #4 | log2 vehicle/camptothecin viability: -0.229; viability with camptothecin (% of control): 107
ASH2L #1 | log2 vehicle/camptothecin viability: -0.666; viability with camptothecin (% of control): 100
ASH2L #2 | log2 vehicle/camptothecin viability: -0.228; viability with camptothecin (% of control): 82.7
ASH2L #3 | log2 vehicle/camptothecin viability: 0.138; viability with camptothecin (% of control): 44.1
ASH2L #4 | log2 vehicle/camptothecin viability: 0.858; viability with camptothecin (% of control): 42.4
NPVF #1 | log2 vehicle/camptothecin viability: -0.0343; viability with camptothecin (% of control): 32.6
NPVF #2 | log2 vehicle/camptothecin viability: -0.0262; viability with camptothecin (% of control): 114
NPVF #3 | log2 vehicle/camptothecin viability: 0.254; viability with camptothecin (% of control): 65
NPVF #4 | log2 vehicle/camptothecin viability: -0.00238; viability with camptothecin (% of control): 99.2
COG1 #1 | log2 vehicle/camptothecin viability: 0.296; viability with camptothecin (% of control): 60.8
COG1 #2 | log2 vehicle/camptothecin viability: -0.0822; viability with camptothecin (% of control): 79.6
COG1 #3 | log2 vehicle/camptothecin viability: -0.204; viability with camptothecin (% of control): 95.7
COG1 #4 | log2 vehicle/camptothecin viability: -0.406; viability with camptothecin (% of control): 33.6
SNRNP70 #1 | log2 vehicle/camptothecin viability: 0.641; viability with camptothecin (% of control): 18.8
SNRNP70 #2 | log2 vehicle/camptothecin viability: -0.012; viability with camptothecin (% of control): 45
SNRNP70 #3 | log2 vehicle/camptothecin viability: -0.462; viability with camptothecin (% of control): 29.8
SNRNP70 #4 | log2 vehicle/camptothecin viability: -0.36; viability with camptothecin (% of control): 77.6
MMP10 #1 | log2 vehicle/camptothecin viability: -0.0848; viability with camptothecin (% of control): 51.6
MMP10 #2 | log2 vehicle/camptothecin viability: 0.273; viability with camptothecin (% of control): 42
MMP10 #3 | log2 vehicle/camptothecin viability: -0.309; viability with camptothecin (% of control): 84.6
MMP10 #4 | log2 vehicle/camptothecin viability: -0.507; viability with camptothecin (% of control): 78.5
BACE1 #1 | log2 vehicle/camptothecin viability: -0.078; viability with camptothecin (% of control): 99.4
BACE1 #2 | log2 vehicle/camptothecin viability: -0.253; viability with camptothecin (% of control): 123
BACE1 #3 | log2 vehicle/camptothecin viability: 0.455; viability with camptothecin (% of control): 65.8
BACE1 #4 | log2 vehicle/camptothecin viability: 0.169; viability with camptothecin (% of control): 88.7
NCOR1P1 #1 | log2 vehicle/camptothecin viability: -0.0682; viability with camptothecin (% of control): 106
NCOR1P1 #2 | log2 vehicle/camptothecin viability: -0.154; viability with camptothecin (% of control): 92.1
NCOR1P1 #3 | log2 vehicle/camptothecin viability: -0.179; viability with camptothecin (% of control): 111
NCOR1P1 #4 | log2 vehicle/camptothecin viability: -0.144; viability with camptothecin (% of control): 131

Individual results from above.
ASH2L #4, log2 vehicle/camptothecin viability: 0.858
For “viability with camptothecin (% of control)”, CD151 #1 is entered as 99
For “viability with camptothecin (% of control)”, ASH2L #2 is entered as 82.7
Value of NPVF #1 under “log2 vehicle/camptothecin viability”: -0.0343
Entry for EHMT2 #1 under “log2 vehicle/camptothecin viability”: 0.111
Under “viability with camptothecin (% of control)”, TAAR1 #2 shows 108
